# According to paper doi:10.1101/2021.09.06.459192:
# Sequences of proteins named here, by UniProt entry; tags and fusion partners are left off. A change or cut given only in a name is not applied to a line headed by its entry.
# UniProt Q05022: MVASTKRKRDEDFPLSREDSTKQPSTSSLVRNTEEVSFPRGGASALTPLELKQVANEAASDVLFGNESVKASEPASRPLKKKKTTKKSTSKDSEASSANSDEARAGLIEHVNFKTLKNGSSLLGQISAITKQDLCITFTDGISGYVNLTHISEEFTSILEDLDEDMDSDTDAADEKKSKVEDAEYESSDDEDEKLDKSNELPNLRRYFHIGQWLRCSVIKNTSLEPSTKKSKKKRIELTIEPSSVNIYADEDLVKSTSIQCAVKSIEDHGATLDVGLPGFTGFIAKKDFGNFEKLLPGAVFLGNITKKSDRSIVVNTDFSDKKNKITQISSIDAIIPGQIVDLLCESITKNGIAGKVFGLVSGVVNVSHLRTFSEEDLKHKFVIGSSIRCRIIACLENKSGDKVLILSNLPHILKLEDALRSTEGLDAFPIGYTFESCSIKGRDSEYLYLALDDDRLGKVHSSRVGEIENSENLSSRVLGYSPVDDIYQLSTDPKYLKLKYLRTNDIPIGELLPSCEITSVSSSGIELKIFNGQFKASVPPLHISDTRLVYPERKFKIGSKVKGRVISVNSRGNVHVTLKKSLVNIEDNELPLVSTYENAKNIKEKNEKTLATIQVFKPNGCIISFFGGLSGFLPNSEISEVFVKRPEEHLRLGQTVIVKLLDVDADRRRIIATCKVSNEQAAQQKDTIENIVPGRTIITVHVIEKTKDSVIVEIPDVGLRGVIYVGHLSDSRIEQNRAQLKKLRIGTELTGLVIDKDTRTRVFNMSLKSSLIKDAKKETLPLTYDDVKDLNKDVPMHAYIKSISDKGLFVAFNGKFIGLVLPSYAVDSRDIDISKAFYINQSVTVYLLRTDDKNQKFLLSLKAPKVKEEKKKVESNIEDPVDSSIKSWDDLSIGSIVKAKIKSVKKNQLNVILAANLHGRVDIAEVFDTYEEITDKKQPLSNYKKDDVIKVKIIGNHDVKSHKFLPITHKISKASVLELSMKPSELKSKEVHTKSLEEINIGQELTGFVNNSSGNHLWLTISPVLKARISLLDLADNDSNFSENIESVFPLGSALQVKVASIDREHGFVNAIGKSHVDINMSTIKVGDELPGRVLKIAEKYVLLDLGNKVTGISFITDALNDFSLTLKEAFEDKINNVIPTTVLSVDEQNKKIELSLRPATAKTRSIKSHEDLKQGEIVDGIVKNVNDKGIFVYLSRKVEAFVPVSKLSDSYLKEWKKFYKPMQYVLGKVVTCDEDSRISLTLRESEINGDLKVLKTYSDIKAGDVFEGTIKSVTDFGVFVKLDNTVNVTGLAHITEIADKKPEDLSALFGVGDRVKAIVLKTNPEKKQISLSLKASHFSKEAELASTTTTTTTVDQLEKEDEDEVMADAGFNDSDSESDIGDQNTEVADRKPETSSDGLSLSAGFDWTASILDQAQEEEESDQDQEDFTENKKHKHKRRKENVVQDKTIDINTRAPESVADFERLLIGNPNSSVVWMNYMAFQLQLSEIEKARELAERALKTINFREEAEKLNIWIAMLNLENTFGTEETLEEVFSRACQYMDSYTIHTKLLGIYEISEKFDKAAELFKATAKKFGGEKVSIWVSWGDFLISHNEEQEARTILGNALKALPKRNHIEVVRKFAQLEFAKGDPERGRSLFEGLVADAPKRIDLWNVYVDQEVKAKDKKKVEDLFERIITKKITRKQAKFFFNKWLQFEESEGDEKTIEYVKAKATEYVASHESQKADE
# These are yes or no findings as the source states them, for the method shown. Binding calls can cover weak binding; strength is not graded here. Where a sequence is shown, tags or fusion partners need not be part of it.
# Target: T1, MBP-Rrp36, recombinant (S. cerevisiae) (UniProt Q12481)
# T1 sequence: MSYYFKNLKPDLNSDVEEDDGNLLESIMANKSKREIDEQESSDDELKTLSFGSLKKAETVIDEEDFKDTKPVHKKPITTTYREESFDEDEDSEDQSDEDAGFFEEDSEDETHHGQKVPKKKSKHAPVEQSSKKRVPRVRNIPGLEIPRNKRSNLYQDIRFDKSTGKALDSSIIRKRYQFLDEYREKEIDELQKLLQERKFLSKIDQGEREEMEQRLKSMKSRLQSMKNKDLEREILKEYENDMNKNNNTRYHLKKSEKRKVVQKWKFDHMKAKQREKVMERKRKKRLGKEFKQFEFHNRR
# Test: pull-down
row,Substance,binding
1,"Rrp5_S1 (first S1 domain of Rrp5 alone), recombinant (from UniProt Q05022) (domain or fragment)",binds
2,"Rrp5_ΔS1 (Rrp5 lacking the first S1 domain), recombinant (S. cerevisiae) (domain or fragment)",no binding (tested: 3 μM)
3,"Rrp5_ΔS1-2 (Rrp5 lacking the first two S1 domains), recombinant (S. cerevisiae) (domain or fragment)",no binding (tested: 3 μM)
